Source: PMC3568127
Results are given in words; binding and its absence hold for the method and conditions named. Some binding calls cover weakened binding; strength is not graded here. Where a sequence is shown, tags or fusion partners need not be part of it.

Sequences of proteins named here, by UniProt entry; tags and fusion partners are left off. Residues count along the entry.
UniProt O14786, residues 22-923: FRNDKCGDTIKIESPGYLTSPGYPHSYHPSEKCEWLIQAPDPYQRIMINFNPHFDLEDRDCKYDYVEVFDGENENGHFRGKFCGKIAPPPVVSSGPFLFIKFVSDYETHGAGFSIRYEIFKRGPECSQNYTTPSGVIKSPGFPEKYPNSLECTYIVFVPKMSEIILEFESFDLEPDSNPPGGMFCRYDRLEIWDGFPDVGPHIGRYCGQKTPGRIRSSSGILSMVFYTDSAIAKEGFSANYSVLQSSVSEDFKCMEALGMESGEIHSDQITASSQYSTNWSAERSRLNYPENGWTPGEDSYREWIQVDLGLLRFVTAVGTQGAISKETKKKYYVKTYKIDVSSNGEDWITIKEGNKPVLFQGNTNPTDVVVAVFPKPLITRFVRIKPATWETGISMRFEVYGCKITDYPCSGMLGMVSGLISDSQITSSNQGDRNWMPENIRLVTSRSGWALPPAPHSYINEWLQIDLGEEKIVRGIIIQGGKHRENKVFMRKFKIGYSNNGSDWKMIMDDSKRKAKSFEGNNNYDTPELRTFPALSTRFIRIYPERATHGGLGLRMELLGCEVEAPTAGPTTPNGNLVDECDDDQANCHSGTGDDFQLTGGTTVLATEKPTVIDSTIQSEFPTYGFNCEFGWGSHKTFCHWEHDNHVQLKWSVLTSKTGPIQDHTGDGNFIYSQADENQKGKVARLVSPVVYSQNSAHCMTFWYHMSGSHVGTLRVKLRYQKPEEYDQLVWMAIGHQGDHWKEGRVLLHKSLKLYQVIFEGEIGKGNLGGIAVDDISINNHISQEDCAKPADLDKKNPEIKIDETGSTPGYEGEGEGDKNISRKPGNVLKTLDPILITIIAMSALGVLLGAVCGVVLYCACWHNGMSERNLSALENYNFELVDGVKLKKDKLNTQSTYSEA

Molecular target: NRP1 (neuropilin 1) expressed from an adenovirus on DU145 cells (UniProt O14786)
Assay: cell based binding displacement assay (biotinylated ligand, streptavidin-HRP, A450); DU145 cells infected with Ad.NRP1 in 96-well plates; various concentrations of competitor then 1 nM bt-VEGF-A165; binding medium with or without 0.1% BSA; 2 h at room temperature; apparent affinity judged by IC50; only the binder purified

Row | binding | Binder
1 | binds | PCGPCSERRKHLFVQDPQTCKCSCKNTDSRCKARQLELNERTCRCDKPRR (domain or fragment)
2 | binds | PCGPCSERRKHLFVQDPQTCKCSCKNTDSRCKARQLELNERTCRCDKPRR (domain or fragment) [VEGF-A165-HBD with the His6-tag removed]
